Results from publication PMC10478284.
Results are given in words; binding and its absence hold for the method and conditions named. Binding seen in cells or lysates may run through a third protein. A yes stands for co-enrichment or nearness to the bait. Other partners may have been found.

Molecular target: T1, CD63 (mouse (endogenous in hippocampo-septal synaptosomes and in primary hippocampal neurons)) (UniProt P41731)
T1 sequence: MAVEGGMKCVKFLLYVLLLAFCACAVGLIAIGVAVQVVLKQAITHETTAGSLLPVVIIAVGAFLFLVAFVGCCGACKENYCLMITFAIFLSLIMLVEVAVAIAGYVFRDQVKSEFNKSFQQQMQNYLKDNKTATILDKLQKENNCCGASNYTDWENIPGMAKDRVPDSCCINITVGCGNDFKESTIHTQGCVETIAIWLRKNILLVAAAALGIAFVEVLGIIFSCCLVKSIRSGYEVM
Experiment: affinity purification with mass spectrometry; 3 µg anti-CD63 (Sicgen) with 0.5 mg/ml hippocampo-septal synaptosomal lysate of 6-month-old WT and 5xFAD mice, overnight at 4 °C, Dynabeads Protein G, washed with Syn-PER reagent, eluted in 8 M urea lysis buffer, LC-MS/MS; abundance compared between 5xFAD and WT

B1: charged multivesicular body protein 3 (Chmp3) (protein, UniProt Q9CQ10 1-224)
chain: MGLFGKTQEKPPKELVNEWSLKIRKEMRVVDRQIRDIQREEEKVKRSVKDAAKKGQKEVCVVLAKEMIRSRKAVSKLYASKAHMNSVLMGMKNQLAVLRVAGSLQKSTEVMKAMQSLVKIPEIQATMRELSKEMMKAGIIEEMLEDTFESMDDQEEMEEAAEMEIDRILFEITAGALGKAPSKVTDALPEPEPAGAMAASEEGEEEEDEEDLEAMQSRLATLRS
Q: B1 was tested. Which binding did it give?
A: Its binding is “binds”.
